The list shows a part of the results. Further columns of the screen follow, without active or inactive calls. The list favours compounds with an active or inconclusive main result. Words in brackets tell the shape of the fitted curve; partial curves, single points and poor fits give uncertain potencies.
Test: qHTS Assay for Lipid Storage Modulators in Drosophila S3 Cells;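 on cell number change: cells counted by Cell Tracker Red CMTPX staining in the red channel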
Conditions: BODIPY lipid droplet fluorescence, 18-24 h; for cell number change: measured here: cell count max response, cells fed with added oleic acid
Procedure, shortened: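 Drosophila S3 cells loaded with oleic acid (400 uM, as added) and compounds at several concentrations; lipid droplets imaged by 488-nm laser-scanning cytometry, 500–530 nm intensity and object ratio to cell channel. Percent activity normalized to 20 uM Triacsin C.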

[1] = measured here: lipid fluorescence (Fed channel) AC50, cells fed with added oleic acid
[2] = measured here: cell number channel AC50, cells fed with added oleic acid

Compound | cell number change | AC50 [1] | AC50 [2]
COc1ccc(NC(=O)CSc2cccc3cccnc23)c(OC)c1 | -5.62% | 1.16 µM [rising, full curve] | 
CCCCn1c(N)c(N(CC(C)C)C(=O)CSCC(=O)Nc2ccc(C)cc2)c(=O)[nH]c1=O | 29% | 6.51 µM [rising, single point] | 
O=c1[nH]cnc2c1sc(=S)n2-c1ccccc1 |  |  | 6.51 µM [falling, single point]
Cc1ccc2cc(S(=O)(=O)NCCC(=O)O)ccc2c1 | -8.41% | 0.00517 µM [falling, full curve, poor fit] | 
COc1ccc2nc(NS(=O)(=O)c3ccc(NC(C)=O)cc3)sc2c1 | -1.18% | 0.517 µM [rising, single point] | 
O=C(O)c1cc2c(cc1NC(=O)c1c(F)cccc1Cl)OCCCO2 | 10.8% | 0.116 µM [falling, single point] | 
CCc1cc(-c2nnc(SCC(=O)NC3CC3)n2C)cs1 | 17.2% |  | 
O=C1CN(C(=O)c2ccccn2)c2ccccc2N1 | -3.25% | 5.17 µM [falling, single point] | 
CCOC(=O)C1CCCN(C(=O)c2ccc(OCC)cc2)C1 (stereo not drawn) | 7.14% | 0.0103 µM [falling, full curve, poor fit] | 
O=C(Cc1cccc2ccccc12)N/N=C/c1ccc2cccc(O)c2n1 | -40.8% | 5.17 µM [falling, partial curve] | 29.1 µM [falling, single point]
Cc1ccc(N2C(=O)CC(N3CCN(C4CCc5ccccc5C4)CC3)C2=O)cc1 (stereo not drawn) | 1.74% | 0.82 µM [falling, full curve, poor fit] | 
O=C(NCc1ccccc1F)C1CCCN1C(=O)NCc1ccccc1 (stereo not drawn) | -35.1% | 1.84 µM [falling, partial curve, poor fit] | 5.8 µM [falling, partial curve]
Cc1cc(=S)[nH]c2c(C)cccc12 | -0.799% |  | 
Cc1c(NC(=O)c2nn3c(C(F)(F)F)cc(-c4ccccc4)nc3c2Br)c(=O)n(-c2ccccc2)n1C |  | 1.46 µM [falling, full curve, poor fit] | 1.46 µM [falling, partial curve]
Cc1cc2ccccn2c1C(=O)c1ccc(F)cc1 | 10.9% | 29.1 µM [rising, single point] | 
CCOc1ccccc1NC(=O)N1CCCN(c2ncccc2C#N)CC1 | 18% | 3.66 µM [rising, partial curve, poor fit] | 
Cn1c(NC(=O)/C=C/c2ccccc2)cc(=O)n(C)c1=O | 11.1% | 0.0731 µM [rising, full curve, poor fit] | 
CC(=O)NC(Cc1ccccc1)C(=O)NC1CCN(C(=O)NCc2ccccc2)CC1 (stereo not drawn) | 8.87% | 1.3 µM [rising, partial curve] | 
Cc1ccc(-c2csc(NC(=O)COC(=O)c3cccc(S(=O)(=O)N4CCOCC4)c3)n2)cc1 | -30% | 5.8 µM [falling, full curve, poor fit] | 
COc1ccc(-n2ncc3c2CC(C)(C)CC3NC(=O)C2=CC(=O)CC(C)(C)O2)cc1 (stereo not drawn) | 17.5% | 29.1 µM [falling, single point] | 

Compound | cell number change | AC50 [1] | AC50 [2]
Cc1nc2ccccc2c2c1C(=O)NC2=O | 7.97% | 6.51 µM [rising, single point] | 
O=C1C2C3CCC(C3NCc3ccccc3)C2C(=O)N1Cc1ccccc1 (stereo not drawn) | 9.66% |  | 
O=c1[nH]c(CSc2nnc(-c3ccco3)n2-c2ccccc2)nc2sc3c(c12)CCC3 | 2.29% | 0.291 µM [rising, full curve] | 
Cc1ccc(C(=O)CC(=O)c2ccccc2C)c(O)c1 | -45.1% | 18.4 µM [falling, partial curve] | 29.1 µM [falling, single point]
O=C(NCC(=O)N1CCN(C/C=C/c2ccccc2)CC1)c1ccc(OC(F)F)cc1 | -13.2% |  | 
CCCC(=O)NC(=S)Nc1ccc(CN2CCOCC2)cc1 | -37.5% | 2.91 µM [rising, partial curve] | 2.31 µM [rising, partial curve]
CCn1c(=O)n(CC)c2cc(S(=O)(=O)Nc3ccccc3C)c(C)cc21 | -55.2% | 29.1 µM [falling, single point] | 25.9 µM [falling, single point]
CC1(C)CC(=O)C(N=Nc2cc(C(F)(F)F)ccc2Cl)=C(O)C1 | 0.488% | 0.00517 µM [falling, full curve, poor fit] | 
COc1ccc(NC(=O)c2ccccc2C)c(OC)c1 | -20.5% |  | 
CC1CC(=O)N(CC(=O)NCc2ccccc2)c2ccccc2S1(=O)=O (stereo not drawn) | -16.4% | 18.4 µM [rising, partial curve] | 
CC(=O)c1ccc(OCc2cc(C(=O)N3CCC(c4ccncc4)CC3)no2)cc1 | -23.5% | 29.1 µM [falling, single point] | 
CCOc1cc(C2C(C(C)=O)=C(C)Nc3ncnn32)ccc1O (stereo not drawn) | 23% |  | 
O=C(c1ccc(CS(=O)(=O)c2c(Cl)cccc2Cl)o1)N1CCN(c2ccccn2)CC1 | -27.1% | 29.1 µM [falling, single point] | 
O=C(NCc1ccc2c(c1)OCO2)c1ccccc1 | 68.9% |  | 5.17 µM [rising, full curve]
COc1ccc(C2C3=C(CC(C)(C)CC3=O)Oc3ncn(Cc4ccccc4)c(=N)c32)cc1 (stereo not drawn) | 79.5% | 0.0146 µM [rising, full curve, poor fit] | 16.4 µM [rising, single point]
CC(=O)NC12CC3CC(C1)CC(C(=O)N1CCN(S(=O)(=O)c4ccc(Cl)s4)CC1)(C3)C2 | 15.3% |  | 
O=C(NCc1ccc2c(c1)OCO2)c1cccc([N+](=O)[O-])c1 |  | 0.116 µM [rising, full curve, poor fit] | 
COc1cc2c(cc1OC)CN(c1nc(CN3CCCC3)nc3sc(C)c(C)c13)CC2 |  | 0.058 µM [rising, full curve] | 
O=C(CNC(=O)C1CCCCC1)OCC(=O)c1ccc(F)cc1 | -6.35% |  | 

Sorted by number of heavy atoms (smallest number first): some entries from above.
Compound | cell number change | AC50 [1] | AC50 [2]
Cc1nc2ccccc2c2c1C(=O)NC2=O | 7.97% | 6.51 µM [rising, single point] | 
O=C(NCc1ccc2c(c1)OCO2)c1ccccc1 | 68.9% |  | 5.17 µM [rising, full curve]
COc1ccc(NC(=O)c2ccccc2C)c(OC)c1 | -20.5% |  | 
CCCC(=O)NC(=S)Nc1ccc(CN2CCOCC2)cc1 | -37.5% | 2.91 µM [rising, partial curve] | 2.31 µM [rising, partial curve]
O=C(CNC(=O)C1CCCCC1)OCC(=O)c1ccc(F)cc1 | -6.35% |  | 
CC1CC(=O)N(CC(=O)NCc2ccccc2)c2ccccc2S1(=O)=O (stereo not drawn) | -16.4% | 18.4 µM [rising, partial curve] | 
O=C1C2C3CCC(C3NCc3ccccc3)C2C(=O)N1Cc1ccccc1 (stereo not drawn) | 9.66% |  | 
CC(=O)c1ccc(OCc2cc(C(=O)N3CCC(c4ccncc4)CC3)no2)cc1 | -23.5% | 29.1 µM [falling, single point] | 
CC(=O)NC12CC3CC(C1)CC(C(=O)N1CCN(S(=O)(=O)c4ccc(Cl)s4)CC1)(C3)C2 | 15.3% |  | 
COc1ccc(C2C3=C(CC(C)(C)CC3=O)Oc3ncn(Cc4ccccc4)c(=N)c32)cc1 (stereo not drawn) | 79.5% | 0.0146 µM [rising, full curve, poor fit] | 16.4 µM [rising, single point]
